According to patent US4868320A, “1,7,9,15-Tetraoxa-4,12-diaza-8-silaspiro-(7.7)-pentadecanes, a process for their preparaton and their use” (Bayer Akteingesellschaft, priority 1987, dated 1989):

How the values were obtained:
[1] = Determination of reactivity: hardening in K 36 (DIN 16 945); conditions: 2% benzoyl peroxide paste (50%), 2% accelerator in resin
[2] = Determination of reactivity: hardening in Roskydal K 14 M (DIN 16 945); conditions: A 3% (0.10% N), 1 2% (0.13% N) in resin

| Compound | Tmax [1] | Tmax [2] |
| --- | --- | --- |
| Cc1ccc(N2CCO[Si]3(OCC2)OCCN(c2ccc(C)cc2)CCO3)cc1 [Example 1] | 102 °C | 127 °C |
| Cc1ccc(N2CC(C)O[Si]3(OC(C)C2)OC(C)CN(c2ccc(C)cc2)CC(C)O3)cc1 (stereo not shown) [Example 3] | 95 °C | – |
| Cc1ccc(N2CCO[Si]3(OCC2)OCCN(c2ccc(C)c(Cl)c2)CCO3)cc1Cl [Example 2] | 78 °C | – |
